This assay deals with truncated rotavirus structural protein VP2 (ΔVP2), bovine rotavirus strain RF (bovine rotavirus strain RF) (UniProt P12472). Kind of assay: co-sedimentation; intracellular extracts of yeast PD.U-267 co-expressing ΔVP2, VP6 and VP7; 35% sucrose cushion (112,700 x g, 2 h, 4 C), pellet in TNC buffer (50 mM Tris-HCl pH 8.0, 0.15 M NaCl, 10 mM CaCl2), CsCl isopycnic gradient (0.42 g/mL, 148,930 x g, 18 h, 4°C); bands analysed by immunoblotting, SDS-PAGE, Western blot and negative-stain TEM. For orientation: In western blotting, separated proteins are transferred to a membrane and probed.

No constants are given. Whether binding was seen depends on the method and setting. In cells and extracts the contact can be indirect. Some binding calls cover weakened binding; strength is not graded here.

For “truncated rotavirus structural protein VP2 (ΔVP2), bovine rotavirus strain RF (from UniProt P12472 93-880) (domain or fragment)”, the binding result is reported as “binds”.
